From paper PMC7718735
Where a chain is given by its changes, count along the chain named. Results are given in words; binding and its absence hold for the method and conditions named. Binding can be weak; no strength is given.

Experiments:
[1] = target: T1, Cut11 MYTH bait (wild type) (S. pombe) (UniProt O13961); assay: two-hybrid; split-ubiquitin membrane yeast two-hybrid (MYTH) in S. cerevisiae; bait-Cub-LexA-VP16 strains mated with the arrayed Nub prey library, diploids spotted in quadruplicate on SD-leu-trp-ade-his with 25 mM 3-AT, imaged every 24 hr for 4 days; positive by a colony density cutoff
T1 sequence: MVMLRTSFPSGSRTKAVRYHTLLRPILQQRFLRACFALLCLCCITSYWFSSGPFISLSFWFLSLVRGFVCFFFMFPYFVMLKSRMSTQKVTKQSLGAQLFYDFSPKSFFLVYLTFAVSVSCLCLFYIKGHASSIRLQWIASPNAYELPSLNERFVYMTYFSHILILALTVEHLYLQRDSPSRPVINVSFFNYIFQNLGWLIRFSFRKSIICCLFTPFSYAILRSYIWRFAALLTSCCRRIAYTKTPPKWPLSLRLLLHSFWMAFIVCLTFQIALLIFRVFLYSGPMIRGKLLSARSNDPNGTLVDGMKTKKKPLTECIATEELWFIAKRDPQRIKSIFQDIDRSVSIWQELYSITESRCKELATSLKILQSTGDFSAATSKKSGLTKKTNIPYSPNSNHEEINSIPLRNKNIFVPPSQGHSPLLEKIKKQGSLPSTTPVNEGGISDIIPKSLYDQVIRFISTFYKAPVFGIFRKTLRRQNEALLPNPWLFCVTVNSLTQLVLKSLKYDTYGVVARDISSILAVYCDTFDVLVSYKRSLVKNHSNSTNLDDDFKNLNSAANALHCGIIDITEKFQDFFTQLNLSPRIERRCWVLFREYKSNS

[2] = target: T2, Cut11 L521F MYTH bait (S. pombe) (UniProt O13961); assay: as above
T2 sequence: T1 sequence with L521F

[3] = target: T3, Lem2 MYTH bait (S. pombe) (UniProt Q10109); assay: as above
T3 sequence: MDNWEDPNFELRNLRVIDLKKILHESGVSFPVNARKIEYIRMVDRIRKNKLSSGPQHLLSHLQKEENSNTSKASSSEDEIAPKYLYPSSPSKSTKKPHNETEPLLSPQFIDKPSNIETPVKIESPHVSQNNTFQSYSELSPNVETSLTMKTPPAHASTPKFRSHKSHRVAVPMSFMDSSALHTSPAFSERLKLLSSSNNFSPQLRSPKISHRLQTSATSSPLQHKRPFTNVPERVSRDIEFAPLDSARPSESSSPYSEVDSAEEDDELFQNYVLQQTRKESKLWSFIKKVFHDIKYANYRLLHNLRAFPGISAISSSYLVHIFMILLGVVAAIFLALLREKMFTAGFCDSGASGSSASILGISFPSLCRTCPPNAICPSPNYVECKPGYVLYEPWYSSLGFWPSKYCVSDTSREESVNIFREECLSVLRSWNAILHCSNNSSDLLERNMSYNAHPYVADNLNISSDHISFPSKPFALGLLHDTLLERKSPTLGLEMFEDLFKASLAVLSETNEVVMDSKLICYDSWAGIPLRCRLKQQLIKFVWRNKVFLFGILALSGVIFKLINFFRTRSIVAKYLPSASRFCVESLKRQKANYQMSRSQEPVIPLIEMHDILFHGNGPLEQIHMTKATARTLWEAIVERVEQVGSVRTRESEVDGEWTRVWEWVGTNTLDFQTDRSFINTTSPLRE

[4] = target: T4, Ima1 MYTH bait (S. pombe) (UniProt O13681); assay: as above
T4 sequence: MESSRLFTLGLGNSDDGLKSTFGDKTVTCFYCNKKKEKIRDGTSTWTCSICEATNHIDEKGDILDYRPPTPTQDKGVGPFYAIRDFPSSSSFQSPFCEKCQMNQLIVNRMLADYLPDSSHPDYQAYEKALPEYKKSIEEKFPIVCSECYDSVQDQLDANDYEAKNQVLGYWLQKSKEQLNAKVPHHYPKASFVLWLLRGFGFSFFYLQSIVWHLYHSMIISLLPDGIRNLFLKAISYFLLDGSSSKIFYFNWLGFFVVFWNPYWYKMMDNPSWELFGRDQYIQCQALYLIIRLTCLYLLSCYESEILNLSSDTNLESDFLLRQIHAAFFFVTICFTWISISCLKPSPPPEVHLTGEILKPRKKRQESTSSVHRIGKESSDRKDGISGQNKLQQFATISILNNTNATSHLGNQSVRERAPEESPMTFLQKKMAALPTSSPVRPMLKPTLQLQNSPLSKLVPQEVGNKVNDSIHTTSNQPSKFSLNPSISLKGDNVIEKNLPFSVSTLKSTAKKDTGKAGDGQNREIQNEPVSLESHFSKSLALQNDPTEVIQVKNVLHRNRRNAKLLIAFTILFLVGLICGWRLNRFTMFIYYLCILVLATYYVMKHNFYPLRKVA

[5] = target: T4, Ima1 MYTH bait (S. pombe); assay: two-hybrid; MYTH confirmation: bait and prey plasmids sequentially transformed into the haploid reporter strain SLJ5572; ten-fold dilution series on SD-leu-trp-ade-his + 25 mM 3-AT at 30°

Row | Substance | binding [1] | binding [2] | binding [3] | binding [4] | other results
1 | Nur1 MYTH prey (S. pombe) |  |  | binds |  | 
2 | Pom34 MYTH prey (S. pombe) | binds | binds | binds | binds | 
3 | Sei1 MYTH prey (S. pombe) |  |  |  | binds | binding [5]: binds
4 | Stc1 MYTH prey (S. pombe) |  |  | no binding |  | 

Now from value to substance, other results behind:

Row | binding [1] | binding [2] | binding [3] | binding [4] | Substance | other results
5 | binds | binds |  |  | Csi2 MYTH prey (S. pombe) | 
6 | binds |  |  |  | Dms1 MYTH prey (S. pombe) | 
7 | binds | binds | binds |  | Nup37 MYTH prey (S. pombe) | 
8 |  |  | binds weakly |  | Pet1 MYTH prey (S. pombe) | 
9 |  |  |  | binds | SPAP14D8.05c MYTH prey (S. pombe) | 
10 |  |  | binds weakly |  | Tom13 MYTH prey (S. pombe) | 
